Reference: the supplement of paper PMC12823440, “Inhibitors supercharge kinase turnover through native proteolytic circuits” (Nature, 2025)
The list shows a part of the results. Hit calls seldom repeat between salt and free forms of one compound.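 Kinases, fused to nanoluciferase, were expressed in K562 cells; luminescence was measured every 4 h from 2 to 18 h as percent of control (DMSO = 100%, positive control = 0%). A time point is decreased if signal falls significantly (2 sigma). Hits were called by the authors by a rule that is not shown; the count of time points alone does not decide it.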

Chains of the proteins cited; added tags and fusions are not shown. Lines headed by an entry give the natural chain unless they say otherwise; changes in a name come on top.
UniProt Q9BRS2: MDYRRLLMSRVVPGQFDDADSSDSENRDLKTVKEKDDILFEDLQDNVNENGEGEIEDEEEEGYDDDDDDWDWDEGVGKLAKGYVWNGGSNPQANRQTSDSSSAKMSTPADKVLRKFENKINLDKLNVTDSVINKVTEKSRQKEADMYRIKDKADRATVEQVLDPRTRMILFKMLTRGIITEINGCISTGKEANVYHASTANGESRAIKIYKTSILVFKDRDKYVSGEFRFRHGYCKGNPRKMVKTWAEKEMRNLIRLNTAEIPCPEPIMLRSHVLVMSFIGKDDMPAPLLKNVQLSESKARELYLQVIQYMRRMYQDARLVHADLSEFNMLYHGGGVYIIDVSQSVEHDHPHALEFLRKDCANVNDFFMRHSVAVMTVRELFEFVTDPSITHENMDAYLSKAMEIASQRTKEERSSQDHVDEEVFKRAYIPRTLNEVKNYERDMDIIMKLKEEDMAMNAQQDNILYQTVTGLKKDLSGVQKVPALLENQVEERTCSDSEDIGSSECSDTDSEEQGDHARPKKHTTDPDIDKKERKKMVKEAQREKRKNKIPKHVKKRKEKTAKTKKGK
UniProt Q9NYA1, whole entry: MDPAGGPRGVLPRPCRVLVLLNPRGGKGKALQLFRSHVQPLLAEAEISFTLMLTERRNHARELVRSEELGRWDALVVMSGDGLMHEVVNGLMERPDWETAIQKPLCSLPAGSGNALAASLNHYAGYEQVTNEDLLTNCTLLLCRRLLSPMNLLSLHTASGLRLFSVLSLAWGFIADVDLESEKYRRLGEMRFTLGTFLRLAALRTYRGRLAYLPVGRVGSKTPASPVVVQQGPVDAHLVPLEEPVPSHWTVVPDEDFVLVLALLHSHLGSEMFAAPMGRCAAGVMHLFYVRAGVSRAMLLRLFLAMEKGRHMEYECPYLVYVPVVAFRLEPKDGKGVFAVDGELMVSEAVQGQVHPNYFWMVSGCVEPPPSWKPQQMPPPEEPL
UniProt Q9Y6E0: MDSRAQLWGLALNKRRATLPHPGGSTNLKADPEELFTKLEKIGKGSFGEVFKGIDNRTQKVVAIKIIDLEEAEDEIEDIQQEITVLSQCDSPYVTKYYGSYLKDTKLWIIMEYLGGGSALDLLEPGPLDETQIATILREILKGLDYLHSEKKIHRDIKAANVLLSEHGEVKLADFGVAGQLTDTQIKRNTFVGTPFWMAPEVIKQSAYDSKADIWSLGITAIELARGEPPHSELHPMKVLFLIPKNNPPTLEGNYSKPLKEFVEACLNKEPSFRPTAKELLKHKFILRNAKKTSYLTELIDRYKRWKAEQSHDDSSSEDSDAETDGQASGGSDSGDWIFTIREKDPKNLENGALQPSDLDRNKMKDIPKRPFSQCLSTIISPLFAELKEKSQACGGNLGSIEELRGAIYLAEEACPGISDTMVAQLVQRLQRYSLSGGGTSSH
UniProt Q15208: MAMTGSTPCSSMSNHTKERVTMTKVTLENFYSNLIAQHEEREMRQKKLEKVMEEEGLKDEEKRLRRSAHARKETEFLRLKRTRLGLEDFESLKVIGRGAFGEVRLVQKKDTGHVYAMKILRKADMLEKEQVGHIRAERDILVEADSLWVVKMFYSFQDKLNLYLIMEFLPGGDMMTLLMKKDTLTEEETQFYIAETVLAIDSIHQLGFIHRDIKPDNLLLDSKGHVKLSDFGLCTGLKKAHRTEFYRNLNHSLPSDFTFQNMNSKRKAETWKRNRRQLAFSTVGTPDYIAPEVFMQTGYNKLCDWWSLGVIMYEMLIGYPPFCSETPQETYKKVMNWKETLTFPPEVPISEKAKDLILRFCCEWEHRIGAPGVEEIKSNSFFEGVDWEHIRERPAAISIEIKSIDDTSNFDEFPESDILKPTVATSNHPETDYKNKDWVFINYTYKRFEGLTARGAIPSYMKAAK
UniProt P42680: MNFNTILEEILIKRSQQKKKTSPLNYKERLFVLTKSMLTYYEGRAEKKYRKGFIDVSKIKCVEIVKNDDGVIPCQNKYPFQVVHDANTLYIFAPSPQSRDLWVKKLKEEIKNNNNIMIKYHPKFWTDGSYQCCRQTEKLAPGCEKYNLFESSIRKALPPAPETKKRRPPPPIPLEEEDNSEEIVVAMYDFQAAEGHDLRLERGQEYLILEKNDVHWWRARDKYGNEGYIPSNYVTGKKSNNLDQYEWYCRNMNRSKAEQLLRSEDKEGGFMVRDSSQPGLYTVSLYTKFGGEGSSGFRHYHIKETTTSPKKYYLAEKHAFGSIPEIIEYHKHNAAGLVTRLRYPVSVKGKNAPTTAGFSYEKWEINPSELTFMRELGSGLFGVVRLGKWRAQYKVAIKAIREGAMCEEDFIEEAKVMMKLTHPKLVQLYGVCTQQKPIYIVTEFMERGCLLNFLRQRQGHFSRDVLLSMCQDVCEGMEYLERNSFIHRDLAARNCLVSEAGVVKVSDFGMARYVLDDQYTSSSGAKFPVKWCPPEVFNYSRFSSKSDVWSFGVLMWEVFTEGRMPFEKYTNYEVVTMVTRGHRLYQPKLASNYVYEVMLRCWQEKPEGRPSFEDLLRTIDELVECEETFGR
UniProt P29597: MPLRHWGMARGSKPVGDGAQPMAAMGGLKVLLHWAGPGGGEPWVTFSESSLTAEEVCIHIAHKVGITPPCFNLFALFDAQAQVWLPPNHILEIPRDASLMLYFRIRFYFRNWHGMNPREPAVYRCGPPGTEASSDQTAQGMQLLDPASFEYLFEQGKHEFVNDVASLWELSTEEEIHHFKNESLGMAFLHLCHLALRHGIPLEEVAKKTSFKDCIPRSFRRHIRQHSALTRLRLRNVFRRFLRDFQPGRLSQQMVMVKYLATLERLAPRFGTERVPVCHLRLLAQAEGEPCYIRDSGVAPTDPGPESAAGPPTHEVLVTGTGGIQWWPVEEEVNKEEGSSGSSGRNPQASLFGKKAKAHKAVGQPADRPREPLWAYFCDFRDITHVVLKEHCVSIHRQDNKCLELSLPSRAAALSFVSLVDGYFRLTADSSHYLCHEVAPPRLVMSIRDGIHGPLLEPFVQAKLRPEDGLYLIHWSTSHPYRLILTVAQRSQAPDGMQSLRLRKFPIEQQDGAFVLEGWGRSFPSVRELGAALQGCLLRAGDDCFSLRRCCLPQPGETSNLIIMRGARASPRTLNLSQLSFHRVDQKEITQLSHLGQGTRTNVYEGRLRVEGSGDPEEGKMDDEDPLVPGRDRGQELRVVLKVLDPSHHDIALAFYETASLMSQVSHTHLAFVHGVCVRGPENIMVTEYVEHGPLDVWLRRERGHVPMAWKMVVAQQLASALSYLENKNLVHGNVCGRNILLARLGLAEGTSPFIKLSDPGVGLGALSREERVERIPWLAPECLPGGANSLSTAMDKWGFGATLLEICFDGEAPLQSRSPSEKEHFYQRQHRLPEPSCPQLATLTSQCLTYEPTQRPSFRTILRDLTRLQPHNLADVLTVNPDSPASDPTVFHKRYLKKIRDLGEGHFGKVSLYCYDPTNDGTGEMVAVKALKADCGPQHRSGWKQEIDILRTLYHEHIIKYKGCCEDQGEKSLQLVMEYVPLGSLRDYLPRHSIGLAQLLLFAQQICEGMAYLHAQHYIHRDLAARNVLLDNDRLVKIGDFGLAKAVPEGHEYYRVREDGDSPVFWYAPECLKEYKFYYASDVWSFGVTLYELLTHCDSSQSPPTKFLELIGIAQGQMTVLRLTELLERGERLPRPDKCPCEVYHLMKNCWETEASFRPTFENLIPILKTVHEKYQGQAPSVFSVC
UniProt Q6PHR2: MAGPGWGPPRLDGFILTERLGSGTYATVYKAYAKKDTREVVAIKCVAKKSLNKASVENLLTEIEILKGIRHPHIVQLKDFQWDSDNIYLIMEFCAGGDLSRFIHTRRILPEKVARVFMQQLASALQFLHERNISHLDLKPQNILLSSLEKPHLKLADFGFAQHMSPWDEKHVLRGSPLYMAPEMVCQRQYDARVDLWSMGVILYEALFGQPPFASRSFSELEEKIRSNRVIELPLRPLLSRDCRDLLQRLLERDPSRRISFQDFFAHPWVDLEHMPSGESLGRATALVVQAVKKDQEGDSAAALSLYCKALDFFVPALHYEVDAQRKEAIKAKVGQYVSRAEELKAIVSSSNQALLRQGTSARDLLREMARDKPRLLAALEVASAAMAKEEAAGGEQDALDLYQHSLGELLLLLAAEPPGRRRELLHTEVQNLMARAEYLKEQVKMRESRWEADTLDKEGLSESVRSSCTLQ
UniProt P07947, whole entry, looked up: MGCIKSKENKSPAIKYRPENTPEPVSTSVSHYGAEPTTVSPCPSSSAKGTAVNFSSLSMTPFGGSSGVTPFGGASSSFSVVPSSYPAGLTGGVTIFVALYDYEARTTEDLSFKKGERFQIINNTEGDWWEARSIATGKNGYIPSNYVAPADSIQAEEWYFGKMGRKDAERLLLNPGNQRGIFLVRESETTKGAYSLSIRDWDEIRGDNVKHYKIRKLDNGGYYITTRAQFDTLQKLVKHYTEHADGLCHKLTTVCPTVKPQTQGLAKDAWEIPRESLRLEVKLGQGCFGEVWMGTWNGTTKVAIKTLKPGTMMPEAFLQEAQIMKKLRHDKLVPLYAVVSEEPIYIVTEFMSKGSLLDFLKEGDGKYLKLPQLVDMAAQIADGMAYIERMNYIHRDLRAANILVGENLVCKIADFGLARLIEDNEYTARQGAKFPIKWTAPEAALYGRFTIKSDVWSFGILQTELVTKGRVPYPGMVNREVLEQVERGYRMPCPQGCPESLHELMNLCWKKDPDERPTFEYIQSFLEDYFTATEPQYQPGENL
UniProt P43403: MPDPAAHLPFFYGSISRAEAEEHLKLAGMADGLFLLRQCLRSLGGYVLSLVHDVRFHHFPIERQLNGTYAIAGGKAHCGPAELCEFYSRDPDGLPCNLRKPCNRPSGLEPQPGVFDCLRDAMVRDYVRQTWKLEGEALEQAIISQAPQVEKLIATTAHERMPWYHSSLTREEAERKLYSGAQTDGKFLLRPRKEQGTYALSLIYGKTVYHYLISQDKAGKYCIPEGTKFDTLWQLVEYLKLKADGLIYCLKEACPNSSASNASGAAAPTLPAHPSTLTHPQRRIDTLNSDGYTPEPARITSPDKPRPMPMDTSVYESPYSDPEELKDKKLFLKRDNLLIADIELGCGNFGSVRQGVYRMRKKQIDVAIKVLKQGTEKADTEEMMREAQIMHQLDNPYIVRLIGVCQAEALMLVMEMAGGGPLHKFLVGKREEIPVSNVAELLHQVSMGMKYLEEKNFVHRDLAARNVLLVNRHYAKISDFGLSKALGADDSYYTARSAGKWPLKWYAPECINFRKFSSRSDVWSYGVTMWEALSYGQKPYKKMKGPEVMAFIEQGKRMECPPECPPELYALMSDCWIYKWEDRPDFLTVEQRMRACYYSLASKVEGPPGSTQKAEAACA
UniProt P00519, whole entry: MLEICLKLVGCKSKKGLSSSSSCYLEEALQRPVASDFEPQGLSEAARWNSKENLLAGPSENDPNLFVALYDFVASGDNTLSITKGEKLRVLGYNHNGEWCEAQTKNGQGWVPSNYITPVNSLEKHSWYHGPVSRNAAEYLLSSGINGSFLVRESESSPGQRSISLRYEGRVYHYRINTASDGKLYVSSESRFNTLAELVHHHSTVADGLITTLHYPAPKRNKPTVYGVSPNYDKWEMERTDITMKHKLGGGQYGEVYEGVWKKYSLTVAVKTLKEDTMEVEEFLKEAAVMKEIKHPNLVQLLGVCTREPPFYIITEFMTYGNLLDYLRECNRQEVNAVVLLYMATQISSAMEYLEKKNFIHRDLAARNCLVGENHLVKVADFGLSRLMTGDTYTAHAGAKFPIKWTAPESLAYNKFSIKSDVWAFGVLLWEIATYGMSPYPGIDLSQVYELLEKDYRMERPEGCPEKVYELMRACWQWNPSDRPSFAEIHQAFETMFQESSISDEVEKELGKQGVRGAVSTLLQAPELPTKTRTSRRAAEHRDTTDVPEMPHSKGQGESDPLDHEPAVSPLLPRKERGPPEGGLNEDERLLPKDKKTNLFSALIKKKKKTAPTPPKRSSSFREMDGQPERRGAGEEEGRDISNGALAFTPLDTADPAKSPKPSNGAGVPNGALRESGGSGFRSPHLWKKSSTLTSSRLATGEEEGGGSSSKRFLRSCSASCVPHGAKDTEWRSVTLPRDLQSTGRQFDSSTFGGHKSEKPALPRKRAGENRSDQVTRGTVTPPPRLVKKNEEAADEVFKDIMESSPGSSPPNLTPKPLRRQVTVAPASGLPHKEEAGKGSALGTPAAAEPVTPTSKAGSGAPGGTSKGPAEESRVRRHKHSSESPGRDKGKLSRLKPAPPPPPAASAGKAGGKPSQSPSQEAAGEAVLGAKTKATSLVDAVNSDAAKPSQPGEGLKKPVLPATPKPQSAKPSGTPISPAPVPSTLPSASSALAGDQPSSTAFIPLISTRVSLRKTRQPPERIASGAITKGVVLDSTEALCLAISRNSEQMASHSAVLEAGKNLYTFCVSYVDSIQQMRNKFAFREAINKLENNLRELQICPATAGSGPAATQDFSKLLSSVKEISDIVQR

Columns and labels:
Conditions in all cases: K562; 2-18 h
RET = RET (UniProt P07949); experiment: kinase-Nluc reporter destabilization hit call (1 = scored as downregulated) (binary); higher = compound decreases kinase abundance
[1] = target: RET_M918T (clone: RET_mut) (UniProt P07949); experiment: as above
RIOK1 = RIOK1 (UniProt Q9BRS2); experiment: as above
RIPK1 = RIPK1 (UniProt Q13546); experiment: as above
RIPK2 = RIPK2 (UniProt O43353); experiment: as above
ROR2 = ROR2 (UniProt Q01974); experiment: as above
RPS6KA1 = RPS6KA1 (UniProt Q15418); experiment: as above
SPHK1 = SPHK1 (UniProt Q9NYA1); experiment: as above
SRC = SRC (UniProt P12931); experiment: as above
STK24 = STK24 (UniProt Q9Y6E0); experiment: as above
STK38 = STK38 (UniProt Q15208); experiment: as above
SYK = SYK (UniProt P43405); experiment: as above
TEC = TEC (UniProt P42680); experiment: as above
TYK2 = TYK2 (UniProt P29597); experiment: as above
ULK3 = ULK3 (UniProt Q6PHR2); experiment: as above
YES1 = YES1 (UniProt P07947); experiment: as above
ZAK = ZAK (UniProt Q9NYL2); experiment: as above
ZAP70 = ZAP70 (UniProt P43403); experiment: as above
ABL1 = ABL1 (UniProt P00519); experiment: number of time points (of 5) at which kinase-Nluc abundance scored as decreased, DMSO-normalised (count); higher = more persistent destabilization
AKT1 = AKT1 (UniProt P31749); experiment: as above

N[C@@H]1CCCN(c2c(/C=C3\SC(=O)NC3=O)cccc2-c2ccccc2)C1 (10 µM)
inactive: kinase-Nluc reporter destabilization hit call (RET) 0 | kinase-Nluc reporter destabilization hit call [1] 0 | kinase-Nluc reporter destabilization hit call (RIOK1) 0 | kinase-Nluc reporter destabilization hit call (RIPK1) 0 | kinase-Nluc reporter destabilization hit call (RIPK2) 0 | kinase-Nluc reporter destabilization hit call (ROR2) 0 | kinase-Nluc reporter destabilization hit call (RPS6KA1) 0 | kinase-Nluc reporter destabilization hit call (SPHK1) 0 | kinase-Nluc reporter destabilization hit call (SRC) 0 | kinase-Nluc reporter destabilization hit call (STK24) 0 | kinase-Nluc reporter destabilization hit call (STK38) 0 | kinase-Nluc reporter destabilization hit call (SYK) 0 | kinase-Nluc reporter destabilization hit call (TEC) 0 | kinase-Nluc reporter destabilization hit call (TYK2) 0 | kinase-Nluc reporter destabilization hit call (ULK3) 0 | kinase-Nluc reporter destabilization hit call (YES1) 0 | kinase-Nluc reporter destabilization hit call (ZAK) 0 | kinase-Nluc reporter destabilization hit call (ZAP70) 0
0: number of time points (ABL1) | number of time points (AKT1)

CO[C@H]1C[C@@H]2CC[C@@H](C)[C@@](O)(O2)C(=O)C(=O)N2CCCC[C@H]2C(=O)O[C@H]([C@H](C)C[C@@H]2CC[C@@H](OC(=O)C(C)(CO)CO)[C@H](OC)C2)CC(=O)[C@H](C)/C=C(\C)[C@@H](O)[C@@H](OC)C(=O)[C@H](C)C[C@H](C)/C=C/C=C/C=C/1C [Temsirolimus] (2.5 µM)
0: number of time points (ABL1) | number of time points (AKT1)
inactive: kinase-Nluc reporter destabilization hit call (RET) 0 | kinase-Nluc reporter destabilization hit call [1] 0 | kinase-Nluc reporter destabilization hit call (RIOK1) 0 | kinase-Nluc reporter destabilization hit call (RIPK1) 0 | kinase-Nluc reporter destabilization hit call (RIPK2) 0 | kinase-Nluc reporter destabilization hit call (ROR2) 0 | kinase-Nluc reporter destabilization hit call (RPS6KA1) 0 | kinase-Nluc reporter destabilization hit call (SPHK1) 0 | kinase-Nluc reporter destabilization hit call (SRC) 0 | kinase-Nluc reporter destabilization hit call (STK24) 0 | kinase-Nluc reporter destabilization hit call (STK38) 0 | kinase-Nluc reporter destabilization hit call (SYK) 0 | kinase-Nluc reporter destabilization hit call (TEC) 0 | kinase-Nluc reporter destabilization hit call (TYK2) 0 | kinase-Nluc reporter destabilization hit call (ULK3) 0 | kinase-Nluc reporter destabilization hit call (YES1) 0 | kinase-Nluc reporter destabilization hit call (ZAK) 0 | kinase-Nluc reporter destabilization hit call (ZAP70) 0

C=CC(=O)Nc1cccc(Oc2nc(Nc3ccc(N4CCN(C)CC4)c(F)c3)nc3[nH]ccc23)c1 [Avitinib (maleate)] (2.5 µM)
1: number of time points (ABL1)
0: number of time points (AKT1)
inactive: kinase-Nluc reporter destabilization hit call (RET) 0 | kinase-Nluc reporter destabilization hit call [1] 0 | kinase-Nluc reporter destabilization hit call (RIOK1) 0 | kinase-Nluc reporter destabilization hit call (RIPK1) 0 | kinase-Nluc reporter destabilization hit call (RIPK2) 0 | kinase-Nluc reporter destabilization hit call (ROR2) 0 | kinase-Nluc reporter destabilization hit call (RPS6KA1) 0 | kinase-Nluc reporter destabilization hit call (SPHK1) 0 | kinase-Nluc reporter destabilization hit call (SRC) 0 | kinase-Nluc reporter destabilization hit call (STK24) 0 | kinase-Nluc reporter destabilization hit call (STK38) 0 | kinase-Nluc reporter destabilization hit call (SYK) 0 | kinase-Nluc reporter destabilization hit call (TEC) 0 | kinase-Nluc reporter destabilization hit call (TYK2) 0 | kinase-Nluc reporter destabilization hit call (ULK3) 0 | kinase-Nluc reporter destabilization hit call (YES1) 0 | kinase-Nluc reporter destabilization hit call (ZAK) 0 | kinase-Nluc reporter destabilization hit call (ZAP70) 0

c1ccc(Cn2c(-c3ccc(OC[C@H](C4CCNCC4)n4c(-c5ccccc5)nc5ccccc54)cc3)nc3ccccc32)cc1 [Deltarasin] (2.5 µM)
0: number of time points (ABL1) | number of time points (AKT1)
inactive: kinase-Nluc reporter destabilization hit call (RET) 0 | kinase-Nluc reporter destabilization hit call [1] 0 | kinase-Nluc reporter destabilization hit call (RIOK1) 0 | kinase-Nluc reporter destabilization hit call (RIPK1) 0 | kinase-Nluc reporter destabilization hit call (RIPK2) 0 | kinase-Nluc reporter destabilization hit call (ROR2) 0 | kinase-Nluc reporter destabilization hit call (RPS6KA1) 0 | kinase-Nluc reporter destabilization hit call (SPHK1) 0 | kinase-Nluc reporter destabilization hit call (SRC) 0 | kinase-Nluc reporter destabilization hit call (STK24) 0 | kinase-Nluc reporter destabilization hit call (STK38) 0 | kinase-Nluc reporter destabilization hit call (SYK) 0 | kinase-Nluc reporter destabilization hit call (TEC) 0 | kinase-Nluc reporter destabilization hit call (TYK2) 0 | kinase-Nluc reporter destabilization hit call (ULK3) 0 | kinase-Nluc reporter destabilization hit call (YES1) 0 | kinase-Nluc reporter destabilization hit call (ZAK) 0 | kinase-Nluc reporter destabilization hit call (ZAP70) 0

O=c1c2c([nH]n1-c1nc3ccccc3s1)CCCC2 (10 µM)
inactive: kinase-Nluc reporter destabilization hit call (RET) 0 | kinase-Nluc reporter destabilization hit call [1] 0 | kinase-Nluc reporter destabilization hit call (RIOK1) 0 | kinase-Nluc reporter destabilization hit call (RIPK1) 0 | kinase-Nluc reporter destabilization hit call (RIPK2) 0 | kinase-Nluc reporter destabilization hit call (ROR2) 0 | kinase-Nluc reporter destabilization hit call (RPS6KA1) 0 | kinase-Nluc reporter destabilization hit call (SPHK1) 0 | kinase-Nluc reporter destabilization hit call (SRC) 0 | kinase-Nluc reporter destabilization hit call (STK24) 0 | kinase-Nluc reporter destabilization hit call (STK38) 0 | kinase-Nluc reporter destabilization hit call (SYK) 0 | kinase-Nluc reporter destabilization hit call (TEC) 0 | kinase-Nluc reporter destabilization hit call (TYK2) 0 | kinase-Nluc reporter destabilization hit call (ULK3) 0 | kinase-Nluc reporter destabilization hit call (YES1) 0 | kinase-Nluc reporter destabilization hit call (ZAK) 0 | kinase-Nluc reporter destabilization hit call (ZAP70) 0
0: number of time points (ABL1) | number of time points (AKT1)

O=C(NCCN1CCOCC1)Nc1nc2ccc(Sc3nnc4ccc(-c5ccc(F)cc5)nn34)cc2s1 (10 µM)
inactive: kinase-Nluc reporter destabilization hit call (RET) 0 | kinase-Nluc reporter destabilization hit call [1] 0 | kinase-Nluc reporter destabilization hit call (RIOK1) 0 | kinase-Nluc reporter destabilization hit call (RIPK1) 0 | kinase-Nluc reporter destabilization hit call (RIPK2) 0 | kinase-Nluc reporter destabilization hit call (ROR2) 0 | kinase-Nluc reporter destabilization hit call (RPS6KA1) 0 | kinase-Nluc reporter destabilization hit call (SPHK1) 0 | kinase-Nluc reporter destabilization hit call (SRC) 0 | kinase-Nluc reporter destabilization hit call (STK24) 0 | kinase-Nluc reporter destabilization hit call (STK38) 0 | kinase-Nluc reporter destabilization hit call (SYK) 0 | kinase-Nluc reporter destabilization hit call (TEC) 0 | kinase-Nluc reporter destabilization hit call (TYK2) 0 | kinase-Nluc reporter destabilization hit call (ULK3) 0 | kinase-Nluc reporter destabilization hit call (YES1) 0 | kinase-Nluc reporter destabilization hit call (ZAK) 0 | kinase-Nluc reporter destabilization hit call (ZAP70) 0
0: number of time points (ABL1) | number of time points (AKT1)

Cc1cccc(COc2cccc(/C=C3\C(=O)NN(c4ccccc4)C3=O)c2)c1 (10 µM)
0: number of time points (ABL1) | number of time points (AKT1)
inactive: kinase-Nluc reporter destabilization hit call (RET) 0 | kinase-Nluc reporter destabilization hit call [1] 0 | kinase-Nluc reporter destabilization hit call (RIOK1) 0 | kinase-Nluc reporter destabilization hit call (RIPK1) 0 | kinase-Nluc reporter destabilization hit call (RIPK2) 0 | kinase-Nluc reporter destabilization hit call (ROR2) 0 | kinase-Nluc reporter destabilization hit call (RPS6KA1) 0 | kinase-Nluc reporter destabilization hit call (SPHK1) 0 | kinase-Nluc reporter destabilization hit call (SRC) 0 | kinase-Nluc reporter destabilization hit call (STK24) 0 | kinase-Nluc reporter destabilization hit call (STK38) 0 | kinase-Nluc reporter destabilization hit call (SYK) 0 | kinase-Nluc reporter destabilization hit call (TEC) 0 | kinase-Nluc reporter destabilization hit call (TYK2) 0 | kinase-Nluc reporter destabilization hit call (ULK3) 0 | kinase-Nluc reporter destabilization hit call (YES1) 0 | kinase-Nluc reporter destabilization hit call (ZAK) 0 | kinase-Nluc reporter destabilization hit call (ZAP70) 0

Cc1cc(C(=O)NC(C)(C)C)cc(C#Cc2ccc3c4c(oc3c2)C(C)(C)c2cc(NS(C)(=O)=O)ccc2C4=O)n1 (10 µM)
2: number of time points (ABL1)
0: number of time points (AKT1)
inactive: kinase-Nluc reporter destabilization hit call (RET) 0 | kinase-Nluc reporter destabilization hit call [1] 0 | kinase-Nluc reporter destabilization hit call (RIOK1) 0 | kinase-Nluc reporter destabilization hit call (RIPK1) 0 | kinase-Nluc reporter destabilization hit call (RIPK2) 0 | kinase-Nluc reporter destabilization hit call (ROR2) 0 | kinase-Nluc reporter destabilization hit call (RPS6KA1) 0 | kinase-Nluc reporter destabilization hit call (SPHK1) 0 | kinase-Nluc reporter destabilization hit call (SRC) 0 | kinase-Nluc reporter destabilization hit call (STK24) 0 | kinase-Nluc reporter destabilization hit call (STK38) 0 | kinase-Nluc reporter destabilization hit call (SYK) 0 | kinase-Nluc reporter destabilization hit call (TEC) 0 | kinase-Nluc reporter destabilization hit call (TYK2) 0 | kinase-Nluc reporter destabilization hit call (ULK3) 0 | kinase-Nluc reporter destabilization hit call (YES1) 0 | kinase-Nluc reporter destabilization hit call (ZAK) 0 | kinase-Nluc reporter destabilization hit call (ZAP70) 0

O=C1CC[C@H](NC(=O)Cc2ccccc2)C(=O)N1 [Antineoplaston A10] (10 µM)
0: number of time points (ABL1) | number of time points (AKT1)
inactive: kinase-Nluc reporter destabilization hit call (RET) 0 | kinase-Nluc reporter destabilization hit call [1] 0 | kinase-Nluc reporter destabilization hit call (RIOK1) 0 | kinase-Nluc reporter destabilization hit call (RIPK1) 0 | kinase-Nluc reporter destabilization hit call (RIPK2) 0 | kinase-Nluc reporter destabilization hit call (ROR2) 0 | kinase-Nluc reporter destabilization hit call (RPS6KA1) 0 | kinase-Nluc reporter destabilization hit call (SPHK1) 0 | kinase-Nluc reporter destabilization hit call (SRC) 0 | kinase-Nluc reporter destabilization hit call (STK24) 0 | kinase-Nluc reporter destabilization hit call (STK38) 0 | kinase-Nluc reporter destabilization hit call (SYK) 0 | kinase-Nluc reporter destabilization hit call (TEC) 0 | kinase-Nluc reporter destabilization hit call (TYK2) 0 | kinase-Nluc reporter destabilization hit call (ULK3) 0 | kinase-Nluc reporter destabilization hit call (YES1) 0 | kinase-Nluc reporter destabilization hit call (ZAK) 0 | kinase-Nluc reporter destabilization hit call (ZAP70) 0
